Test results taken from PubChem BioAssay (EPA / NIEHS).
The inconclusive results got no clear call from the source; some entries with a clear call stand among them for comparison. A potency beside an inconclusive call is a rough fit, not a confirmed value. Calls of active or inactive are those of the source. Rule for the calls: active = hit-call score of the fitted dose curve at least 0.9, where 1 is the maximum; inconclusive = response in the unintended direction; inactive = score below 0.9.

The chains behind the UniProt entries cited, without tags or fusion partners. Where a name states a change or a piece, a line headed by the entry shows the natural chain unless it says otherwise.
UniProt Q2NNR5: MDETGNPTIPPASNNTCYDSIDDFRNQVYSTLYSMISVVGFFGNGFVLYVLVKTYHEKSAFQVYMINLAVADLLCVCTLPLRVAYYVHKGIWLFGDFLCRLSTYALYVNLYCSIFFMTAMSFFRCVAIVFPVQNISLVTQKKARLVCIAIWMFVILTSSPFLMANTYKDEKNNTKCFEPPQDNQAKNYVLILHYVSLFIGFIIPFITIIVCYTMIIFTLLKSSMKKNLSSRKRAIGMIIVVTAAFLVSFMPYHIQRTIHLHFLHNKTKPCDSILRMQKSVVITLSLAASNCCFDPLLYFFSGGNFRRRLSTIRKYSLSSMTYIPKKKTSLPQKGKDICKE

What follows are molecules tested against guinea pig Leukotriene D4 Receptor (LTD4), CYSLTR1 (gene 100135514) (UniProt Q2NNR5) (assay: NVS_GPCR_gLTD4: NovaScreen (NVS) G Protein-Coupled Receptor Assay for guinea pig Leukotriene D4 Receptor (LTD4) (AID 2283248)).
In short: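 Guinea pig lung membrane preparation; bound radioligand measured by filter scintillation after 1 h, loss of signal versus DMSO marking displacement. Compounds tested at 25 uM in duplicate, hits retested to max 50 uM.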

Structure (SMILES)	AC50	outcome
Oc1ccc(-c2ccccc2)cc1	inconclusive: 98.7 nM	
O=C(O)C(F)(F)C(F)(F)C(F)(F)C(F)(F)C(F)(F)C(F)(F)C(F)(F)C(F)(F)C(F)(F)F		inactive
CC[C@H](C)[C@H]1O[C@]2(C=C[C@@H]1C)C[C@@H]1C[C@@H](C/C=C(\C)[C@@H](O[C@H]3C[C@H](OC)[C@@H](O[C@H]4C[C@H](OC)[C@@H](O)[C@H](C)O4)[C@H](C)O3)[C@@H](C)/C=C/C=C3\CO[C@@H]4[C@H](O)C(C)=C[C@@H](C(=O)O1)[C@]34O)O2 (tested in a mixture with another compound)	active: 25000 nM	
CC(C)N(C(=O)CCl)c1ccccc1	inconclusive: 1420 nM	
CC1(C(=O)Nc2ccc(O)c(Cl)c2Cl)CCCCC1	inconclusive: 66.4 nM	
COP(N)(=O)SC (stereo unspecified)	inconclusive: 25000 nM	

2 of these compounds, reformatted.
Structure (SMILES) | AC50 | outcome
Oc1ccc(-c2ccccc2)cc1 | inconclusive: 98.7 nM | 
O=C(O)C(F)(F)C(F)(F)C(F)(F)C(F)(F)C(F)(F)C(F)(F)C(F)(F)C(F)(F)C(F)(F)F |  | inactive
